Source: the supplement of paper PMC10849652
Some of the results follow.

Amino acid sequences for entries named in this document (tags omitted). A change or cut given only in a name is not applied to a line headed by its entry.
UniProt Q9BRK4: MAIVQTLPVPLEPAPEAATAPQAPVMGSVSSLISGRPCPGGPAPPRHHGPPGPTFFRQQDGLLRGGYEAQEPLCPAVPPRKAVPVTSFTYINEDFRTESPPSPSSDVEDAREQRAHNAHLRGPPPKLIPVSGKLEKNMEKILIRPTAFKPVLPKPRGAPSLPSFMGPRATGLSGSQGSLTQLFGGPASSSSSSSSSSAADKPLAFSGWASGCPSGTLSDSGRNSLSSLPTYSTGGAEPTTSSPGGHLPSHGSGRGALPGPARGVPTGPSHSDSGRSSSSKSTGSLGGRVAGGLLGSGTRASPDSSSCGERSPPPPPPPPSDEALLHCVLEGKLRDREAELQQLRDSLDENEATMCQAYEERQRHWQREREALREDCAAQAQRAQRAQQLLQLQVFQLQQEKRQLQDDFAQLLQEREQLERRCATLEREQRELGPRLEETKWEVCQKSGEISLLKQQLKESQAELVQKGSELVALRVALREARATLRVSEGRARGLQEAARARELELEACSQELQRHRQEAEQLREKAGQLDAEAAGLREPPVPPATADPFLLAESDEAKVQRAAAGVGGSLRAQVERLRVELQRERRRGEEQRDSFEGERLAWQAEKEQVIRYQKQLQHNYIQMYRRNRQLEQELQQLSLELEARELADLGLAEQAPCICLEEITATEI
UniProt Q99683: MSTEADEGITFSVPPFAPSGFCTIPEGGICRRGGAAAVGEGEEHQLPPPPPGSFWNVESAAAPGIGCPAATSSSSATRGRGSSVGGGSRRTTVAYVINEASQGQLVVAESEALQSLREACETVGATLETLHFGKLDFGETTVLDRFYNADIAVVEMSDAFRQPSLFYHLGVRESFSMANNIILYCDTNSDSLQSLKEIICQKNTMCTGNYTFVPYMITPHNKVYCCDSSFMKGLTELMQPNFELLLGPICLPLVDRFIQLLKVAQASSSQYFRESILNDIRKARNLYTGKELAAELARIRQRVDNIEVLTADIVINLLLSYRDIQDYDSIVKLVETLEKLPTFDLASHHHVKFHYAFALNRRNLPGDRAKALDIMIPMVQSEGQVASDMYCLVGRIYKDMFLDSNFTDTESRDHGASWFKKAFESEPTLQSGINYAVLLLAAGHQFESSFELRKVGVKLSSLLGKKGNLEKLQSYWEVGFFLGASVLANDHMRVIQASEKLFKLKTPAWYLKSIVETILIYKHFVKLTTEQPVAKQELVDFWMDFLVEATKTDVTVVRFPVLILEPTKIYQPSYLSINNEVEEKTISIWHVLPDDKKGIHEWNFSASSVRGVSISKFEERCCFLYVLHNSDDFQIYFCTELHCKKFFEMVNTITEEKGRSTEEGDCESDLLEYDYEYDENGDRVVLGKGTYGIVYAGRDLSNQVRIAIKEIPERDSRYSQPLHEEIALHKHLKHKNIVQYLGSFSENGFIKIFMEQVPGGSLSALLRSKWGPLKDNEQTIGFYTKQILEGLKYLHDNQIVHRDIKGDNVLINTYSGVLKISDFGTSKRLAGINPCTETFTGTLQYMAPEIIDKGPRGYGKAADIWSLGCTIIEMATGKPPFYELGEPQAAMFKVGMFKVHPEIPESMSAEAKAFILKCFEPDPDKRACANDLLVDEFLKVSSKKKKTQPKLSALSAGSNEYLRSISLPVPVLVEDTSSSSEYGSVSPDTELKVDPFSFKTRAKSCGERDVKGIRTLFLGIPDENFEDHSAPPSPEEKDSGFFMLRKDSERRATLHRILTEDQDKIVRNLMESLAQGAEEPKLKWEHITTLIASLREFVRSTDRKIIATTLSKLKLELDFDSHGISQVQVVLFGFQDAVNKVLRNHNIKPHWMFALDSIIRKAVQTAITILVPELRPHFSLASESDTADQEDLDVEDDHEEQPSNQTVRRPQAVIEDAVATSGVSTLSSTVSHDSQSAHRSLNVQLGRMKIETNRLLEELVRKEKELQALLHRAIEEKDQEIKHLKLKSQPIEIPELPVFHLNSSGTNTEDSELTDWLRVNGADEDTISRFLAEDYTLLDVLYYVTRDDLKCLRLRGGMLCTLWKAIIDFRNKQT
UniProt Q14766: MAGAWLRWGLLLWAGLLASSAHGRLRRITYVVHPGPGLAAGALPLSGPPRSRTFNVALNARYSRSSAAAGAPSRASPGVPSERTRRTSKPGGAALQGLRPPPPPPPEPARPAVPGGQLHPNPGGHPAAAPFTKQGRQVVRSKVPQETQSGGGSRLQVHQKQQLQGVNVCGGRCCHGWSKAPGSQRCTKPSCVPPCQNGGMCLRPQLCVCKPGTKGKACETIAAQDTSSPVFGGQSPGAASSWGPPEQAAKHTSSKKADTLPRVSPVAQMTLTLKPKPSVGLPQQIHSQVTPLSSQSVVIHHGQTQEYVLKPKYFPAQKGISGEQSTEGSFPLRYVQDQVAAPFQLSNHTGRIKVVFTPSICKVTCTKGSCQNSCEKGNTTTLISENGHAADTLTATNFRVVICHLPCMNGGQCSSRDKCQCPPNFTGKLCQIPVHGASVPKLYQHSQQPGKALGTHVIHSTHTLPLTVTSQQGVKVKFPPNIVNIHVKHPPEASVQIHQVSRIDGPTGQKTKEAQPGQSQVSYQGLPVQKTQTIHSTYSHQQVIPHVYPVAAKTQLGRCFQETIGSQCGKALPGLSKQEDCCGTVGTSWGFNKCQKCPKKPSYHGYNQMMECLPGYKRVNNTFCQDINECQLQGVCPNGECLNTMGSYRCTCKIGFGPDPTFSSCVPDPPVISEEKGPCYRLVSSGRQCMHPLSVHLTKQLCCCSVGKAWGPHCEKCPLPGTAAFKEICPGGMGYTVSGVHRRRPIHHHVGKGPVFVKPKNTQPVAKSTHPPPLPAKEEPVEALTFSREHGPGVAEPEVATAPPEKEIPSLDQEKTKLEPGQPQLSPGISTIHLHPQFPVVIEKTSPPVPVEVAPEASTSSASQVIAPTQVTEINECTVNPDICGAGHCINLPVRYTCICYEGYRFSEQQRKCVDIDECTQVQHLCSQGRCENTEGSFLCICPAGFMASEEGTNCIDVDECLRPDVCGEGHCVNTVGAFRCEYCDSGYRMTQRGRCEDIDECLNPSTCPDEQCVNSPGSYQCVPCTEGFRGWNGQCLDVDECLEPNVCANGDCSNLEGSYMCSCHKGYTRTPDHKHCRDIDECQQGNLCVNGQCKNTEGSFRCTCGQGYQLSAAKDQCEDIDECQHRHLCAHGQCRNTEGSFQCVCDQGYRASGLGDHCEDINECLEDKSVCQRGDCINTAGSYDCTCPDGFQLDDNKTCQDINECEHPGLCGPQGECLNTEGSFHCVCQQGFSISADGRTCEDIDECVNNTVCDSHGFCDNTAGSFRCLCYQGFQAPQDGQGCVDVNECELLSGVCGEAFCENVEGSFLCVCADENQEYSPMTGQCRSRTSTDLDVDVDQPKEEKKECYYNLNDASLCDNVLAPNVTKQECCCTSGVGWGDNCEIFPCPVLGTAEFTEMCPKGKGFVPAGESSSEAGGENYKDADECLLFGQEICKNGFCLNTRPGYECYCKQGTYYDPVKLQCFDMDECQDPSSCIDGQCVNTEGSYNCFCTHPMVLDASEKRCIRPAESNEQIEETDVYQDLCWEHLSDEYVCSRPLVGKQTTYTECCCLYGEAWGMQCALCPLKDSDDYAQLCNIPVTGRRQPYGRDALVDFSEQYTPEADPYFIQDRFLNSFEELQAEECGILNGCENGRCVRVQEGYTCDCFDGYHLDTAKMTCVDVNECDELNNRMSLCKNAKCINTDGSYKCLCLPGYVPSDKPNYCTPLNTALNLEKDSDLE
UniProt Q9Y6R4: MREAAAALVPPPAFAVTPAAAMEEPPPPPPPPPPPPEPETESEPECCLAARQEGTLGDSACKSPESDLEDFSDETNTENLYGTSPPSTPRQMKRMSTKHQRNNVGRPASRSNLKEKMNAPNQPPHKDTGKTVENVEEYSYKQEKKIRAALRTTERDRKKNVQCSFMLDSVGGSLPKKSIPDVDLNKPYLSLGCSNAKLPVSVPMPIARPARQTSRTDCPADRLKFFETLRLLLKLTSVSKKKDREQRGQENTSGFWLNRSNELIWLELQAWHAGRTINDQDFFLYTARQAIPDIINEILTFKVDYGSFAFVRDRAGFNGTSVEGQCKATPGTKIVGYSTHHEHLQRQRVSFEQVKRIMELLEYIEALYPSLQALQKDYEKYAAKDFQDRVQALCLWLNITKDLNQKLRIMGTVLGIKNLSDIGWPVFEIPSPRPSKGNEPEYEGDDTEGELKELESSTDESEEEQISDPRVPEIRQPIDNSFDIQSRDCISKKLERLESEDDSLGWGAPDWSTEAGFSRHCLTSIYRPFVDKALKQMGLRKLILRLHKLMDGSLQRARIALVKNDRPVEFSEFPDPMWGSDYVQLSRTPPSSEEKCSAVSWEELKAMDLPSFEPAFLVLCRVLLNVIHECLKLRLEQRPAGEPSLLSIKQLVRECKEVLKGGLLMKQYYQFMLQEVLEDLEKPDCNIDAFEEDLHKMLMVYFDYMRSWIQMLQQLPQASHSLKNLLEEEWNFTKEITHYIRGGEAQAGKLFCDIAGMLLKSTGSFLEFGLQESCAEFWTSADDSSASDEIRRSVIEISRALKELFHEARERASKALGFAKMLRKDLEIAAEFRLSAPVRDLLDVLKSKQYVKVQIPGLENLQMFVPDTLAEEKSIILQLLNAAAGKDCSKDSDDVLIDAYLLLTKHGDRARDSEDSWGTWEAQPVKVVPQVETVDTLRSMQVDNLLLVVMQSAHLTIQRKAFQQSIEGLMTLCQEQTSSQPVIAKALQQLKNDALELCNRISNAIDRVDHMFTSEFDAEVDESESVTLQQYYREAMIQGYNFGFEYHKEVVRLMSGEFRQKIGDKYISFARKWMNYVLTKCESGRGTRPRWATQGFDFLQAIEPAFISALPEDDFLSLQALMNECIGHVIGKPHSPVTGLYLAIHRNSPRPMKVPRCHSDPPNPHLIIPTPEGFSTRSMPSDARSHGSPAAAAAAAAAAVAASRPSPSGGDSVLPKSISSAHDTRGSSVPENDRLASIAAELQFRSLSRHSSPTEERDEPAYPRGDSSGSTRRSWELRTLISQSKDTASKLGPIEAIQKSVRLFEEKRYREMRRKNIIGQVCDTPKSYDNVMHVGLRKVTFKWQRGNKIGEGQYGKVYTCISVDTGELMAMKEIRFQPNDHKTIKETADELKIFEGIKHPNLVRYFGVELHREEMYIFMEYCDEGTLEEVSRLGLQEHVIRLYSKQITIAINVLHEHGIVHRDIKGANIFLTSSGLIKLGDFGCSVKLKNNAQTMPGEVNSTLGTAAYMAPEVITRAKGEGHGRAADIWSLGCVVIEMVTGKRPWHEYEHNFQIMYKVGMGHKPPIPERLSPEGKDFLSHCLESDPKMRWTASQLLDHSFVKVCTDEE
UniProt Q15759, whole entry, looked up: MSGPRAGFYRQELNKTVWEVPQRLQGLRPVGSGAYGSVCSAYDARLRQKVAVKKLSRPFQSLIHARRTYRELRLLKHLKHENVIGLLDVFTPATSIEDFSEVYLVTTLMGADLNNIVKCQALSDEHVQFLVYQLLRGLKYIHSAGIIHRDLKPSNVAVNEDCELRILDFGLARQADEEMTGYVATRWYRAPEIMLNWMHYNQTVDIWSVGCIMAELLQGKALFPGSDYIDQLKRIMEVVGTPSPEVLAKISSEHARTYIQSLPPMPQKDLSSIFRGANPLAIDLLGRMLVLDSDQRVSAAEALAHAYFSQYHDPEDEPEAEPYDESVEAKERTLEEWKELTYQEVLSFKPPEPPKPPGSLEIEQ
UniProt Q8TD08: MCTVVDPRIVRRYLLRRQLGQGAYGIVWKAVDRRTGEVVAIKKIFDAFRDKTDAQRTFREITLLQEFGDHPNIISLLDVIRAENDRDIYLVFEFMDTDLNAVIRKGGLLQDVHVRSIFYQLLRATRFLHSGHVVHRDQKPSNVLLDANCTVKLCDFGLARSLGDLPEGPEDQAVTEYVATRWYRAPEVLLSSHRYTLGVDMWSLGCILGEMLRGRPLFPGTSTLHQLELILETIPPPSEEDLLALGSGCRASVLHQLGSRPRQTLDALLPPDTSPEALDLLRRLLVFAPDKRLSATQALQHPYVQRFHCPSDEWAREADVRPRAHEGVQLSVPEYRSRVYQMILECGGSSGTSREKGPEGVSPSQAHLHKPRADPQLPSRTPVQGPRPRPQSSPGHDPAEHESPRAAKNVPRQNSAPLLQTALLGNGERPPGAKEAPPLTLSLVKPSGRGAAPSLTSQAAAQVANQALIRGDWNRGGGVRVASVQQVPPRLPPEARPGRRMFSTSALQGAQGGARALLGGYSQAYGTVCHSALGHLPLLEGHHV
UniProt Q86UD3: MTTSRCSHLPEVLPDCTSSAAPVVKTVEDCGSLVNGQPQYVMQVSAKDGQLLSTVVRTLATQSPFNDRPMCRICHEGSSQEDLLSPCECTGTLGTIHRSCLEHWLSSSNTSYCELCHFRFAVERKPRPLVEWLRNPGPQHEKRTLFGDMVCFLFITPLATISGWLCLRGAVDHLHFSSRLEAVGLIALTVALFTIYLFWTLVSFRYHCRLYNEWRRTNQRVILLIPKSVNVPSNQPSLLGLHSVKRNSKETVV

Tests used:
Experiment in all cases: log2 fold change, soluble protein after heating vs DMSO (PISA); higher = thermal stabilisation; K562 lysate, 10 uM; active = over 0.2 and 3.5 SD of the protein, either way, in both replicates (recomputed)
[1] = compound: C#Cc1cccc(Nc2ncnc3cc(OCCOC)c(OCCOC)cc23)c1 [erlotinib]
Procedure, shortened: (§1)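 The values are log-two fold changes in thermal stability compared with solvent controls and come from duplicates. They were obtained by TMTpro 16plex LC-MS/MS, with channel sums equalised, on the supernatant after 21,000xg for 90 min. That supernatant came from crude K562 extract at 1 mg/mL protein treated with 10 μM compound for 30 min, heated for 3 min across 48°C-58°C, pooled and brought to 0.5% NP-40 at 4°C.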

[2] = compound: C/C(=N\NC(=O)C1=CC(=CC=C1)S(=O)(=O)N2CCOCC2)/C3=C(C=CC(=C3)Cl)O
Procedure, shortened: as §1

[3] = compound: C1=CC(=CC=C1C2=NC3=C(N2)C=C(C=C3)C(=O)N)OC4=CC=C(C=C4)Cl
Procedure, shortened: as §1

[4] = compound: C1=CC2=C(C=CC(=C2)/C=C\3/C(=O)NC(=NCC4=CC=CS4)S3)N=C1
Procedure, shortened: as §1

[5] = compound: C1=CC2=NC=CN=C2C=C1/C=C/3\C(=O)NC(=O)S3
Procedure, shortened: as §1

[6] = compound: C1=CC=C(C=C1)C2=NC(=C(N2)C3=CC=NC=C3)C4=CC(=C(C=C4)Cl)O
Procedure, shortened: as §1

[7] = compound: C1=CC=C2C(=C1)C3=NNC4=CC=CC(=C43)C2=O
Procedure, shortened: as §1

[8] = compound: C1CCN(C1)C(=O)NC2=CC=CC(=C2)NC3=NC=C(C(=N3)NCCC4=CN=CN4)Br
Procedure, shortened: as §1

[9] = compound: C1CN(CCC1(CC2=CC=C(C=C2)Cl)N)C3=NC=NC4=C3C=CN4
Procedure, shortened: as §1

[10] = compound: C1COCCN1CCN2C3=CC=CC=C3N=C2NC(=O)C4=CC(=CC=C4)[N+](=O)[O-] [IRAK-1-4 Inhibitor I]
Procedure, shortened: as §1

[11] = compound: C=CC(=O)N1CCC[C@@H](n2nc(-c3ccc(Oc4ccccc4)cc3)c3c(N)ncnc32)C1 [ibrutinib]
Procedure, shortened: as §1

[12] = compound: CC(=O)c1cnc2ccc(-c3cc(Cl)c(O)c(Cl)c3)nc2c1N[C@H]1CC[C@H](CN(C)C)CC1
Procedure, shortened: as §1

[13] = compound: CC(C)(C)Cn1c(N)nc2ccc(-c3[nH]c(C(C)(C)C)nc3-c3ccc(F)cc3)nc21 [ralimetinib]
Procedure, shortened: as §1

[14] = compound: CC(C)(O)CC(=O)NCCn1ccc2ncnc(Nc3ccc(Oc4cccc(C(F)(F)F)c4)c(Cl)c3)c21
Procedure, shortened: as §1

[15] = compound: CC(C)C1=C2N=C(C=C(N2N=C1)NCC3=CC=CC=C3)NCCCCCCN
Procedure, shortened: as §1

[16] = compound: CC1=C(C(CC(=O)N1)C2=CC=C(C=C2)C(F)(F)F)C(=O)NC3=C(C=C4C(=C3)C=NN4)F
Procedure, shortened: as §1

[17] = compound: CC1=C(C2=C(C=C1)C(=O)C3=CC=CC=C3N2CCCN)C
Procedure, shortened: as §1

[18] = compound: CC1=C(C=C(C=C1)NC(=O)C2=CC(=CC=C2)C(C)(C)C#N)NC3=CC4=C(C=C3)N=CN(C4=O)C
Procedure, shortened: as §1

[19] = compound: CC1=C(C=C(C=C1)NC(=O)C2=CC(=CC=C2)N(C)C)NC(=O)C3=CC=C(C=C3)O
Procedure, shortened: as §1

[20] = compound: CC1=CC=C(C=C1)SC2=C3C=C(SC3=CN=C2)C(=O)N
Procedure, shortened: as §1

Measured: log2 fold change

MAP2K3 isoform 3 (UniProt P46734)
inactive: [1] 0.048 | [2] 0.061 | [3] 0.03 | [4] -0.063 | [5] 0.03 | [6] -0.037 | [7] 0.119 | [8] -0.006 | [9] 0.129 | [10] 0.03 | [11] -0.041 | [12] 0.095 | [13] 0.012 | [14] -0.008 | [15] -0.15 | [16] 0.019 | [17] -0.095 | [18] 0.021 | [19] 0.123 | [20] 0.114

LYRM1 (UniProt O43325)
inactive: [1] -0.299 | [2] -0.087 | [3] -0.178 | [4] 0.01 | [7] 0.088 | [15] -0.015 | [17] 0.037 | [18] 0.046

LZTS2 (UniProt Q9BRK4)
inactive: [1] 0.055 | [2] -0.019 | [3] -0.013 | [4] -0.058 | [5] 0.024 | [7] -0.104 | [8] -0.267 | [9] -0.064 | [11] -0.078 | [12] -0.016 | [15] -0.039 | [16] -0.085 | [17] 0.025 | [18] 0.033 | [20] -0.038

MAP3K8 (UniProt P41279)
inactive: [5] -0.155 | [11] -0.086 | [17] -0.072

MAGEA2 (UniProt P43356)
inactive: [8] 0.004 | [9] -0.053 | [17] -0.006

Pulled one by one from the entries so far, two records:
MAGEA2 (UniProt P43356)
inactive: [8] 0.004 | [9] -0.053 | [17] -0.006

MAP2K3 isoform 3 (UniProt P46734)
inactive: [1] 0.048 | [2] 0.061 | [3] 0.03 | [4] -0.063 | [5] 0.03 | [6] -0.037 | [7] 0.119 | [8] -0.006 | [9] 0.129 | [10] 0.03 | [11] -0.041 | [12] 0.095 | [13] 0.012 | [14] -0.008 | [15] -0.15 | [16] 0.019 | [17] -0.095 | [18] 0.021 | [19] 0.123 | [20] 0.114

Going on with the list:

MAP3K5 (UniProt Q99683)
inactive: [2] -0.142 | [4] -0.046 | [5] -0.121 | [6] 0.006 | [7] 0.088 | [8] 0.152 | [9] 0.051 | [10] 0.017 | [11] -0.163 | [12] -0.007 | [13] 0.056 | [14] -0.236 | [16] 0.039 | [18] 0.204 | [19] 0.027 | [20] 0.085

MAP3K1 (UniProt Q13233)
inactive: [2] 0.182 | [4] -0.02 | [6] 0.185 | [7] -0.01 | [8] -0.142 | [9] 0.1 | [10] -0.008 | [13] -0.137 | [14] -0.034 | [16] 0.038 | [18] 0.014 | [19] 0.092

LTBP1 isoform 4 (UniProt Q14766)
inactive: [1] -0.102 | [3] 0.098 | [5] 0.013 | [8] 0.322 | [9] -0.005 | [11] -0.08 | [15] -0.116 | [16] 0.111 | [17] -0.154

LY6E (UniProt Q16553)
inactive: [2] -0.095 | [4] 0.049 | [5] -0.033 | [7] -0.27 | [8] -0.02 | [9] 0.025 | [11] -0.032 | [12] 0.028 | [16] -0.027 | [20] -0.042

LYPLA1, A0A087X1K9
inactive: [2] -0.005 | [4] -0.388 | [6] -0.097 | [7] -0.061 | [8] -0.155 | [9] -0.023 | [10] 0.089 | [12] -0.02 | [13] 0.074 | [14] -0.19 | [18] 0.036 | [19] 0.039 | [20] -0.336

MAP3K4 isoform 2 (UniProt Q9Y6R4)
inactive: [18] -0.005

MARCHF7 (UniProt Q9H992)
inactive: [17] -0.022

MAPK11 (UniProt Q15759)
inactive: [1] -0.016 | [3] -0.037 | [5] -0.093 | [6] 0.228 | [10] 0.021 | [11] 0.072 | [12] 0.221 | [13] 0.521 | [14] 0.007 | [15] 0.262 | [16] -0.241 | [18] 0.302 | [19] -0.067 | [20] -0.311

LYN isoform 2 (UniProt P07948)
inactive: [1] -0.161 | [3] -0.093 | [6] 0.132 | [8] -0.035 | [9] -0.385 | [10] 0.493 | [13] -0.104 | [14] 0.106 | [15] -0.061 | [16] -0.432 | [17] -0.226 | [18] 0.333 | [19] -0.008

MAP4K4 isoform 6 (UniProt O95819)
inactive: [1] 0.006 | [3] 0.156 | [5] 0.094 | [6] -0.061 | [8] 0.003 | [9] -0.078 | [10] -0.049 | [11] 0.056 | [12] 0.001 | [13] -0.19 | [14] 0.027 | [15] -0.021 | [17] -0.127 | [19] 0.002 | [20] 0.037

MAPKAP1 (UniProt Q9BPZ7)
inactive: [1] -0.091 | [3] -0.059 | [6] 0.062 | [8] 0.141 | [9] -0.181 | [10] -0.19 | [13] -0.019 | [14] 0 | [15] -0.031 | [16] -0.103 | [17] 0.061 | [18] 0.007 | [19] -0.034

MAGI1 (UniProt H7C4S7)
inactive: [17] 0.05

LY6D (UniProt Q14210)
inactive: [17] 0.628

MAPK15 (UniProt Q8TD08)
inactive: [1] 0.04 | [3] 0.225 | [6] -0.054 | [10] 0.069 | [13] -0.103 | [14] -0.188 | [15] 0 | [16] -0.067 | [17] -0.208 | [18] 0.236 | [19] 0.065

LTBR (UniProt P36941)
inactive: [1] -0.05 | [3] 0.105 | [5] 0.26 | [11] -0.185 | [12] -0.042 | [15] -0.103 | [18] 0.124 | [20] -0.146

MARCHF3 (UniProt Q86UD3)
inactive: [2] 0.009 | [4] -0.07 | [7] 0.011 | [8] 0.04 | [9] 0.022

MANBAL (UniProt Q9NQG1)
inactive: [1] 0.021 | [3] -0.028 | [5] 0.05 | [6] 0.042 | [8] -0.049 | [9] 0.01 | [10] -0.009 | [11] 0.077 | [12] 0.016 | [13] -0.002 | [14] -0.001 | [15] -0.082 | [19] 0.028 | [20] -0.045

MACF1 (UniProt E9PLY5)
inactive: [5] -0.054 | [11] 0.065 | [12] 0.188 | [16] -0.023 | [18] -0.055 | [20] 0.022

MAGEF1 (UniProt Q9HAY2)
inactive: [1] 0.231 | [3] 0.201 | [6] 0.111 | [10] -0.142 | [12] -0.431 | [13] -0.424 | [14] -0.56 | [15] 0.242 | [17] -0.299 | [19] -0.019 | [20] -0.322

MAP3K6 (UniProt O95382)
inactive: [2] 0.05 | [4] 0.183 | [7] 0.487 | [8] 0.033 | [9] -0.008 | [16] -0.12
